Some of the results follow. Further columns of the screen follow, without active or inactive calls. Compounds called inactive in the main read-out are mostly missing here. The note in brackets gives the kind of curve behind each potency; many fits are weak.
Test: qHTS Assay for Lipid Storage Modulators in Drosophila S3 Cells;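 on cell number change: cells counted by Cell Tracker Red CMTPX staining in the red channel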
Details: BODIPY lipid droplet fluorescence, 18-24 h; for cell number change: measured here: cell count max response, cells fed with added oleic acid
Outline: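 Drosophila S3 cells loaded with oleic acid (400 uM, as added) and compounds at several concentrations; lipid droplets imaged by 488-nm laser-scanning cytometry, 500–530 nm intensity and object ratio to cell channel. Percent activity normalized to 20 uM Triacsin C.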

[1] = measured here: cell number channel AC50, cells fed with added oleic acid
[2] = measured here: lipid fluorescence (Fed channel) AC50, cells fed with added oleic acid

With `CCOC(=O)c1nn(-c2cccc(C)c2)c2nc(-c3ccccc3)c(C#N)c(=O)n12` the cell number change was 46.5%, the AC50 [1] was 2.06 µM [rising, partial curve] and the AC50 [2] was 0.731 µM [rising, partial curve].
In the case of `N#C/C(=C/c1ccc(OCc2ccccc2)cc1)C(=O)NC1CCCCC1`, the cell number change is reported as -62.7%, the AC50 [1] is reported as 5.8 µM [falling, full curve, poor fit] and the AC50 [2] is reported as 0.461 µM [falling, full curve].
In the case of `O=C(/C=C/c1ccc(NC(=O)c2ccccc2-c2ccccc2C(=O)O)cc1)c1ccccc1`, the cell number change is reported as -18% and the AC50 [2] is reported as 0.58 µM [falling, single point].
For `CN1C=CC2=C(C#N)C(N)C(C#N)(C#N)C(c3ccccc3)C2C1` (stereo unspecified), the cell number change was 81.5%, the AC50 [1] was 8.2 µM [rising, partial curve] and the AC50 [2] was 8.2 µM [rising, partial curve].
With `CN(C(=O)/C=C/c1cnc2ccccc2c1)C1CCCCC1` the cell number change was 9.45% and the AC50 [2] was 6.51 µM [rising, single point].
For `COc1cc(/C=N/O)cc(Br)c1OC`, the cell number change was -4.87%.
With `COC(=O)Cc1c(C)c2c(O)cc(C)cc2oc1=O` the cell number change was 2.23% and the AC50 [2] was 1.16 µM [falling, full curve].
In the case of `COc1ccc(/C=N/NC(=O)c2cc(-c3ccc(C)cc3C)nc3ccccc23)cc1COC(C)=O`, the cell number change is reported as 6.35% and the AC50 [2] is reported as 29.1 µM [rising, single point].
In the case of `Cc1nnc(NC(=O)c2ccccc2F)s1`, the cell number change is reported as -28.3%, the AC50 [1] is reported as 4.11 µM [falling, full curve, poor fit] and the AC50 [2] is reported as 25.9 µM [falling, single point].
With `CC1=C(C(=O)OCC2CCCO2)C(c2ccc(C)cc2)C2=C(CCCC2=O)N1` (stereo unspecified) the cell number change was 9.38% and the AC50 [2] was 0.206 µM [rising, full curve, poor fit].
`CNC(=O)c1cc(S(=O)(=O)Nc2ccc3c(c2)OCCO3)ccc1C` gave a cell number change of -8.47%.
In the case of `CCCN(C(=O)C(C)Oc1cccc(Cl)c1)c1c(N)n(Cc2ccccc2)c(=O)[nH]c1=O` (stereo unspecified), the cell number change is reported as 21.6% and the AC50 [2] is reported as 0.651 µM [rising, single point].
In the case of `Cc1csc(NC(=O)c2cc(C)on2)n1`, the cell number change is reported as 32.8%.
For `Cc1ccc(C(=O)NNC(=O)c2ccc(NC(=O)C(C)(C)C)cc2)cc1`, the cell number change was 20.7% and the AC50 [1] was 0.058 µM [rising, full curve, poor fit].
With `O=C(CSc1nnc(CNC(=O)c2ccccc2F)o1)c1ccccc1` the AC50 [2] was 4.61 µM [rising, partial curve].
For `Cc1ccccc1NC(=O)c1cn(-c2ccccc2)nc1-c1ccccc1`, the cell number change was 6.67% and the AC50 [2] was 1.03 µM [rising, full curve, poor fit].
With `O=C(c1ccco1)N1CCN(C(=O)c2[nH]ncc2[N+](=O)[O-])CC1` the cell number change was -4.15% and the AC50 [2] was 0.651 µM [rising, full curve, poor fit].
For `O=C(COc1ccc(NC(=O)c2ccccc2[N+](=O)[O-])cc1)c1ccc(F)cc1`, the cell number change was 63.7% and the AC50 [1] was 1.46 µM [rising, single point].
In the case of `CCc1ccc(C(=O)CCC(=O)Nc2cccc(S(=O)(=O)N3CCCCC3)c2)cc1`, the cell number change is reported as 75.2%, the AC50 [1] is reported as 16.4 µM [rising, single point] and the AC50 [2] is reported as 25.9 µM [rising, single point].
For `Clc1ccc(C2=Nc3cc(Cl)ccc3OC2)cc1`, the cell number change was -0.288%.
`CC(NC(=O)CSc1nnc(-c2cccc(S(=O)(=O)N3CCCCC3)c2)o1)C12CC3CC(CC(C3)C1)C2` (stereo unspecified) showed a cell number change of -3.09%.
With `Cc1cccc(COCC(CC(C)C)N2CCN(C(=O)c3ccc(C(C)(C)C)cc3)CCC2=O)c1` (stereo unspecified) the cell number change was -67.3%, the AC50 [1] was 2.59 µM [falling, full curve] and the AC50 [2] was 2.06 µM [falling, full curve].
For `C/C(=N\NC(=O)c1nc2ccccn2c1C)c1cc2ccccc2o1`, the cell number change was 20.8%, the AC50 [1] was 2.31 µM [rising, single point] and the AC50 [2] was 2.31 µM [rising, full curve].
For `COc1cc(/C=C/c2nc(N)nc(-c3ccccc3O)n2)cc(OC)c1OC`, the cell number change was -25.5% and the AC50 [2] was 18.4 µM [falling, single point].
In the case of `CCCC(=O)NCn1nnc(-c2ccc(Cl)cc2)n1`, the cell number change is reported as 16.9% and the AC50 [2] is reported as 0.00461 µM [rising, full curve, poor fit].
For `C=CCn1c(CC(C)(C)C)nc2ccccc21`, the cell number change was 2.49% and the AC50 [1] was 0.731 µM [rising, single point].
With `COc1ccc(-c2cn[nH]c2-c2ccc(OCc3ccccc3)cc2O)cc1` the cell number change was -55.5% and the AC50 [2] was 16.4 µM [falling, single point].
In the case of `Cc1ccc2oc(C(=O)N(Cc3ccc(N(C)C)cc3)CC3CCCO3)c(C)c2c1` (stereo unspecified), the cell number change is reported as -68.3%, the AC50 [1] is reported as 8.2 µM [falling, single point] and the AC50 [2] is reported as 5.8 µM [rising, single point].
For `CCN(CCCNC(=O)CC(C(=O)N1CCc2ccccc21)n1ccnc1)c1cccc(C)c1` (stereo unspecified), the cell number change was -36.2%, the AC50 [1] was 7.31 µM [falling, partial curve] and the AC50 [2] was 0.058 µM [falling, full curve].
With `CCCCNC(=O)C1CCC(CNc2c(N3CCC(C)CC3)c(=O)c2=O)CC1` (stereo unspecified) the cell number change was -19.2% and the AC50 [2] was 7.31 µM [falling, partial curve].
With `O=C1N/C(=C\c2ccc(O)cc2)C(O)=C1C=NCc1ccccc1` the cell number change was -5.62% and the AC50 [2] was 23.1 µM [rising, single point].
In the case of `C/C(=N\NC(=O)Nc1ccccc1)c1ccc2ccccc2c1`, the cell number change is reported as -10.4% and the AC50 [2] is reported as 1.16 µM [falling, single point].
In the case of `O=C(Cc1n[nH]c(=O)[nH]c1=O)N/N=C/c1cccc(O)c1`, the cell number change is reported as -25.3%, the AC50 [1] is reported as 0.00411 µM [falling, full curve, poor fit] and the AC50 [2] is reported as 2.91 µM [falling, single point].
For `O=[N+]([O-])c1nn(-c2ccc3c(c2)OCCO3)n(O)c1=NCCC1=CCCCC1`, the cell number change was -3.52% and the AC50 [2] was 16.4 µM [falling, single point].
For `CCC(C)NC(=O)[C@H]1N2C(=O)c3c(ccc(OC)c3OC)C2SC1(C)C` (stereo partly specified), the cell number change was 23.9% and the AC50 [2] was 6.51 µM [rising, single point].
For `O=C(CCS(=O)(=O)c1ccc(Cl)cc1)Nc1nc(-c2ccncc2)cs1`, the cell number change was -24.2% and the AC50 [2] was 6.51 µM [rising, single point].
`Cc1cc(NC(=O)CN2C(=O)NC3(CCCCC3C)C2=O)no1` (stereo unspecified) showed a cell number change of 0.314%.
With `CC(C)(C)C1CCC(=NNc2ccc(S(N)(=O)=O)cc2[N+](=O)[O-])CC1` (stereo unspecified) the cell number change was -39.2%, the AC50 [1] was 20.6 µM [falling, single point] and the AC50 [2] was 14.6 µM [falling, partial curve].
With `Cc1cccc(NC(=O)C2CC(=O)n3ncnc3N2)c1` (stereo unspecified) the cell number change was -15% and the AC50 [2] was 0.731 µM [falling, full curve, poor fit].
With `Cn1cnnc1SCC(=O)NCc1cccc(C(F)(F)F)c1` the cell number change was 63.3% and the AC50 [1] was 8.2 µM [rising, partial curve].
With `COc1cc(C2OC(=O)c3c2ccc(OC)c3OC)ccc1O` (stereo unspecified) the cell number change was 11.5% and the AC50 [2] was 5.8 µM [falling, full curve].
In the case of `O=C(CSc1nnc(COc2ccc(Cl)cc2)o1)N1CCCC1`, the AC50 [2] is reported as 29.1 µM [rising, single point].
With `Cc1ccc(NC(=O)CN(C)CC(=O)N(C)Cc2ccccc2)cc1` the cell number change was -10.8% and the AC50 [2] was 18.4 µM [falling, single point].
With `CCCn1nnnc1SCC(=O)Nc1ccc(F)cc1` the cell number change was 0.715% and the AC50 [2] was 23.1 µM [rising, single point].
In the case of `CCc1cc(C(=O)NCC2CCCO2)sc1C` (stereo unspecified), the cell number change is reported as 4.91%.
In the case of `CSc1ccc(CNC(=O)C2CCC(=O)N(Cc3cccc(F)c3)C2)cc1` (stereo unspecified), the cell number change is reported as 12.7%, the AC50 [1] is reported as 1.64 µM [rising, partial curve] and the AC50 [2] is reported as 14.6 µM [falling, single point].
For `COc1ccc(CCC(=O)Nc2nc3ccccc3[nH]2)cc1`, the AC50 [2] was 6.51 µM [falling, single point].
For `O=[N+]([O-])c1cccc(-c2csc(Nc3ccccc3)n2)c1`, the cell number change was -21.2% and the AC50 [2] was 29.1 µM [falling, single point].
With `O=C(NCCCN1CCCC1=O)C1CCCO1` (stereo unspecified) the cell number change was -10.6%, the AC50 [1] was 0.164 µM [falling, full curve] and the AC50 [2] was 0.13 µM [falling, full curve, poor fit].
With `O=C(C1CCCN(c2ncnc3c2nc2n3CCCCC2)C1)N1CCCCC1` (stereo unspecified) the cell number change was 16%, the AC50 [1] was 6.51 µM [rising, single point] and the AC50 [2] was 6.51 µM [rising, single point].
With `Cc1cc(C)cc(NC(=O)c2cccn2-c2ncc(C(F)(F)F)cc2Cl)c1` the cell number change was 4.02% and the AC50 [2] was 20.6 µM [falling, single point].
In the case of `COc1ccc(C(=O)NCCS(=O)(=O)NCC2CCCO2)cc1` (stereo unspecified), the cell number change is reported as -16.9%, the AC50 [1] is reported as 0.00461 µM [falling, full curve, poor fit] and the AC50 [2] is reported as 0.164 µM [falling, full curve, poor fit].
With `COc1cccc(CNC(=O)CSc2nnc3c(n2)[nH]c2ccc(OC)cc23)c1` the cell number change was 140%, the AC50 [1] was 20.6 µM [rising, partial curve] and the AC50 [2] was 0.651 µM [falling, full curve].
For `C=CCSc1nc(C)c2cc(C)cc(C)c2n1`, the AC50 [2] was 4.61 µM [falling, single point].
In the case of `Clc1cc2nc3ccccn3c2cc1Cl`, the cell number change is reported as -17.4% and the AC50 [2] is reported as 0.00411 µM [falling, full curve, poor fit].
In the case of `CCCNC(=O)NC(=O)COC(=O)c1cccc(NS(=O)(=O)c2ccc(F)c(F)c2)c1`, the cell number change is reported as -57.7%, the AC50 [1] is reported as 29.1 µM [falling, single point] and the AC50 [2] is reported as 6.51 µM [rising, partial curve, poor fit].
For `Cc1ccc2c(NC(=O)C3CC3)cccc2n1`, the cell number change was -3.28%, the AC50 [1] was 6.51 µM [falling, single point] and the AC50 [2] was 6.51 µM [falling, single point].

— PubChem BioAssay AID2685 (National Center for Advancing Translational Sciences (NCATS), 2010)
